## Primary screen of a compound library

Chains of the proteins cited; added tags and fusions are not shown.
UniProt P9WNZ1, whole entry: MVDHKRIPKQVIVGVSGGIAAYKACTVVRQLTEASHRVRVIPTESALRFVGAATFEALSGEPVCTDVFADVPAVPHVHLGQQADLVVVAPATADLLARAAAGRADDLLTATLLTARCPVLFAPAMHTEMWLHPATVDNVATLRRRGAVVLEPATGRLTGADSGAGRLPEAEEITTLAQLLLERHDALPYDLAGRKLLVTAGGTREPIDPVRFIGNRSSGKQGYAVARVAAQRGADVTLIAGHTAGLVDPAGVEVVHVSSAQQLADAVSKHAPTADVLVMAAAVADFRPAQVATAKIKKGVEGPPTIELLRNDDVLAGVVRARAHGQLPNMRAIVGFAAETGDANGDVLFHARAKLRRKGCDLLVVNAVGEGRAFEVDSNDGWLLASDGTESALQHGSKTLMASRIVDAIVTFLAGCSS

From ChEMBL document CHEMBL3988442, “University of Dundee, Small-Polar-MMV Screening Library” (2021).

Each number is a percent effect as filed.
The record does not define 0% and 100%; most values in the screen are far below 50% and negative numbers occur (in some assays of this library far below -100).
The compounds are a random part of those screened.

A: 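Cell assay of Leishmania donovani living inside macrophages; the read-out is not stated. Tested at 30 µM. Higher reads as stronger inhibition (inferred: compounds with an IC50 in retests scored well above the rest). Size under these conditions: about 69,000 compounds, about 1,000 of them at 50% or above in at least one test.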
B: 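Coenzyme A biosynthesis protein CoaBC, Mycobacterium tuberculosis (UniProt P9WNZ1). Enzyme assay of CoaBC with a phosphate dye (Biomol Green) read at 650 nm. Compounds at 30 µM. Direction is inferred from only a few compounds that gave an IC50; most scored high, so higher reads as stronger inhibition. Most strong results did not repeat in a second test. Size under these conditions: about 67,000 compounds, about 40 of them at 50% or above in at least one test.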

{"compound": "COc1ccc(OCCN(C)C(=O)NC(C)c2nncn2C)cc1", "stereo": "centres undefined", "A": 3.736, "B": 1.695}
{"compound": "O=C(c1ccc2c(c1)COC2)N1CCN(CCO)CC1", "A": 11.95, "B": 0.5249}
{"compound": "COc1ccc2cc(NC(=O)CCCNc3ncccn3)cnc2c1", "A": 10.12, "B": 3.535}
{"compound": "O=C(COCC1CCCCO1)N1CCN(Cc2ccccc2F)C(=O)C1", "stereo": "centres undefined", "A": 10.3, "B": 3.909}
{"compound": "CCN(Cc1noc(CC(C)C)n1)Cc1cc2ccc(F)cc2[nH]c1=O", "A": -9.082, "B": 4.978}
{"compound": "O=C1CC2(CCSC2)C(=O)N1Cc1coc(-c2ccccc2)n1", "stereo": "centres undefined", "A": 4.889, "B": -3.125}
{"compound": "COCC(=O)N[C@H](C)c1c(-c2ccc(OC)cc2)noc1C(=O)O", "A": 20.09, "B": -4.636}
{"compound": "COCCN1C[C@H]2CN(C(=O)NCc3ccccc3)CCN2C1=O", "B": -11.06}
{"compound": "Cn1ccnc1N1CCN(C(=O)Cc2ccc(Cl)cc2)CC1", "B": 3.557}
{"compound": "[H][C@]12CCN(c3ccc(C)nn3)C[C@@]1([H])CN(Cc1c[nH]cn1)C2", "A": 1.387}
{"compound": "Cc1cc(C)n(CC2CCCCN2C(=O)c2ccc3c(c2)COC3)n1", "stereo": "centres undefined", "A": 9.685, "B": 1.567}
{"compound": "O=C(c1cn(-c2ccc(C(F)(F)F)cn2)nn1)N1CCCCCC1", "A": -1.503, "B": 1.21}
{"compound": "CCCNC(=O)CNc1ccc2c(c1)N(C(=O)OC(C)(C)C)CCC2", "A": -9.159, "B": 0.3654}
{"compound": "Cc1ccsc1C(=O)N1Cc2ccccc2C2(CCN(C)CC2)C1", "A": -13.5, "B": -0.3861}
{"compound": "CC[C@@H]1N(Cc2ccc(F)cc2)CCC[C@]12CCC(=O)N2CCOC", "B": -0.9877}
{"compound": "[H][C@]12CN(CC3CC3)C(=O)[C@@]1([H])CN(c1cnccn1)C2", "A": 20.33}
{"compound": "CCOc1cc(F)ccc1NC1CCN(CC(F)(F)F)C1=O", "stereo": "centres undefined", "A": -3.56, "B": 1.146}
{"compound": "COc1cccc(CN2CCC3(COCc4cnc(N(C)C)nc43)C2)c1", "stereo": "centres undefined", "B": 12.77}
{"compound": "CCc1nc(CCNC(=O)C2CC2)sc1C", "A": 2.353, "B": 5.847}
{"compound": "CC(C)c1n[nH]c(C2CN(CC(=O)N(C)Cc3ccco3)CCO2)n1", "stereo": "centres undefined", "A": 13.81, "B": 5.04}
{"compound": "O=C(NCCNc1ncccn1)C1CC(=O)N(C2CCCC2)C1", "stereo": "centres undefined", "A": -8.333, "B": -7.8}
{"compound": "CCCn1cnnc1-c1nc2c([nH]1)CC(c1ccc(Cl)cc1)CNC2=O", "stereo": "centres undefined", "A": -17.97, "B": -12.1}
{"compound": "c1ccc(CN2C[C@@H]3CC[C@H](C2)N(Cc2nnc(C4CC4)o2)C3)cc1", "B": -2.978}
{"compound": "Cc1nn(C)c(C)c1CNCc1ccnc(N2CCOCC2)c1", "A": 2.336, "B": 2.611}
{"compound": "c1cnc(NCc2noc3c2CN(c2cnccn2)CC3)nc1", "A": 14.4, "B": 2.439}

Once more, the final 2:

* Cc1nn(C)c(C)c1CNCc1ccnc(N2CCOCC2)c1 | A: 2.336%; B: 2.611%
* c1cnc(NCc2noc3c2CN(c2cnccn2)CC3)nc1 | A: 14.4%; B: 2.439%